# Experimental data: paper PMC4673326 (BioMed Research International, 2015)
# Plain letter strings leave the end groups untold.
# Assay: peptide synthesis
# Conditions: whole synthesis, analytical HPLC
sequence,measurement,value
KWKYPKLLKKLLK,final HPLC purity,above 99%
